Record: PubChem BioAssay AID686943 (Drosophila RNAi Screening Center, 2013)
Purpose: 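Knockdowns that increase or decrease active ERK after insulin receptor stimulation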 (primary screen). System: Drosophila S2R+ haemocyte-like cells expressing YFP-tagged ERK (Rolled). Reagents: long dsRNA against Drosophila genes. Treatment: insulin stimulation versus unstimulated cells; dose and duration not given. Measurement: 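Per-plate z-scores of phospho-ERK immunostaining normalised to YFP-tagged ERK, measured with and without insulin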. Direction: replicate 1, z-score of dpERK with insulin and replicate 2, z-score of dpERK with insulin: higher = more active ERK per ERK-YFP after insulin; replicate 1, z-score of dpERK under basal conditions: higher = more basal active ERK per ERK-YFP; replicate 1, z-score of ERK-YFP with insulin: higher = more YFP-tagged ERK signal.
The screen tested about 23,000 reagents; below is an unselected part of those with a known target gene and a result. 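Extra replicates exist only for a retested subset of genes; insulin dose and duration not given; both raised and lowered dpERK matter.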 Reagents against one gene are numbered here. Names joined by + are all predicted targets of the reagent. Not given: the amount of reagent, the time to read-out.

replicate 1, z-score of dpERK with insulin	replicate 2, z-score of dpERK with insulin	replicate 1, z-score of dpERK under basal conditions	replicate 1, z-score of ERK-YFP with insulin	target	reagent no.
-1.26	0.21	-0.19	1.59	CR32821 + CR43381 + CR43377 + 1 more	1
-0.57	0.29	1.5	0.84	Sps2	1
0.34	0.06	1.44	0.39	CG17380	1
-1.09	-0.1	0.74	-0.1	Uch-L5	1
-0.94	-0.5	-0.05	0.03	mthl11	1
0.28	-0.13	0.22	0.26	Apt1	1
-0.52	-0.4	0.57	-0.64	Ube4B	1
-0.06	0.29	0.11	1.67	CG12075	1
0.09	0.26	-0.67	-0.31	CG13252	1
1.37	0.38	-1.93	-0.74	Gyc89Da	1
-0.32	0.43	-0.07	0.35	CG6985	1
-0.17	-0.45	-2.26	-1.79	Non1	1
0.67	0.66	0.76	-0.62	CG9497	1
-0.15	-0.76	0.28	-0.4	Nup160 + RfC38	1
-0.24	-0.17	-0.54	0.24	CG7695	1
0.44	-0.18	-0.31	-0.76	CG5070	1
0.69	-1.32	-1.96	-0.08	CG14851	1
-0.42	1.31	-0.19	-0.15	CG14851	2
-0.49	0.23	-0.54	0.61	CG30203	1
-0.19	-0.61	0.54	0.3	Bro	1
0.36	0.35	-0.37	0.42	CG17593	1
-0.66	0.06	1.09	0.37	mtg	1
-0.6	0.33	1.38	0.36	CG31673	1
-0.1	-0.66	0.43	0.01	Rsph9	1
0.5	0.13	0.12	0.43	CrzR	1
-0.13	-0.81	0.33	0.3	CrzR	2
1.22	0.2	-0.4	0.14	CG32091	1
0.15	0.09	0.2	0.91	CG32091	2
0.98	0.03	1.11	0.57	CG43108	1
0.68	-0.16	0.15	0.29	CG31639	1
0.27	-0.2	0.17	-0.3	tor	1

Records above whose target name begins with U or u (2):
replicate 1, z-score of dpERK with insulin	replicate 2, z-score of dpERK with insulin	replicate 1, z-score of dpERK under basal conditions	replicate 1, z-score of ERK-YFP with insulin	target	reagent no.
-1.09	-0.1	0.74	-0.1	Uch-L5	1
-0.52	-0.4	0.57	-0.64	Ube4B	1

The list goes on:
replicate 1, z-score of dpERK with insulin	replicate 2, z-score of dpERK with insulin	replicate 1, z-score of dpERK under basal conditions	replicate 1, z-score of ERK-YFP with insulin	target	reagent no.
0.76	1.49	0.64	0.37	Eno	1
-0.09	-0.59	-1.17	0.85	dgt1	1
0.65	0.72	0.51	0.72	ppk25	1
0.66	0.27	-0.77	-0.72	Bacc	1
-0.2	-0.09	0.05	0.18	CG13314	1
0.07	0.87	0.49	0.57	CG14990	1
-0.01	0.6	-0.63	0.62	CG10337	1
-0.9	0.76	0.93	0.21	png	1
1.36	0.42	-0.91	-0.88	l(2)09851	1
-1.31	-1.04	-0.09	-0.16	puf	1
0.63	-0.65	0.95	-0.02	CG13947	1
0.44	0.53	1.01	0.11	CG6034	1
0.02	0.26	-0.46	0.2	Rab32	1
-0.49	0.64	0.61	0.58	Rab32	2
0.69	-0.04	0.13	-0.08	Npc2g	1
0.24	-0.03	0.35	-0.32	CG31104	1
0.32	-0.24	-0.93	0.53	CG12128	1
0.07	-0.32	-0.77	0.83	CG10340	1
-0.05	-0.29	0.11	-0.12	Rift	1
-1.96	-1.82	1.29	-0.73	CG33271	1
-0.49	-0.34	-0.26	-0.59	wech	1
-4.56	-4.19	-0.07	1.55	CG12155	1
0.4	1.94	2.16	-0.59	His1:CG33816 + His1:CG33828 + His1:CG33819 + 21 more	1
-0.01	0.11	-0.19	0.04	CG2993	1
-0.3	0.44	-0.4	0.22	CG2993	2
-0.59	0	-0.88	0.54	Sid	1
0.15	-0.24	-1.43	0.35	Obp85a	1
0.05	0.15	-0.09	0.32	CG15153	1
0.64	0.6	0.72	0.77	Unc-76	1
0.02	-0.04	1.06	0.3	Unc-76	2
0.36	0.41	0.09	0.71	ex	1
-0.11	-0.01	0.83	0.07	CG13044	1
0.25	0.21	-0.43	0.49	CG10841	1
-1.19	-0.41	0.88	-0.15	Naa35	1
-0.18	0.46	-0.51	-0.05	ana3	1
0.22	0.19	-0.24	0.08	GstT2	1
-0.23	0.55	0.09	0.03	Adk1	1
0.5	-0.49	-0.07	-0.28	CG14341	1
0.45	0.52	0.01	0.23	CG17698	1
0.25	-0.12	-0.27	0.26	PGAP3	1
-1.14	-4.78	-0.48	0.17	InR	1
-3.19	0.1	5.36	-3.11	RpL4	1
